From article PMC4794898 come the findings set out here.

By UniProt entry, the sequences of proteins in these tests, tags left out.
UniProt Q8ILV1: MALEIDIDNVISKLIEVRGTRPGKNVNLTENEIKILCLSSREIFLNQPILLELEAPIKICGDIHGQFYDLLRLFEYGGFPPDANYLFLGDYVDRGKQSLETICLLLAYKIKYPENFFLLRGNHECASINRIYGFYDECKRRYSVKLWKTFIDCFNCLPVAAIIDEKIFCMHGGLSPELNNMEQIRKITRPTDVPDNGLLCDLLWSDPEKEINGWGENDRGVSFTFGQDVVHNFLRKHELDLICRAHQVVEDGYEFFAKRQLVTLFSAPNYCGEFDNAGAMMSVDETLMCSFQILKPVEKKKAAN

No constants are given. Whether binding was seen depends on the method and setting. Binding can be weak; no strength is given.

The target in this experiment is PfPP1 fused with the GAL4 DNA binding domain (PfPP1-pGBKT7) (Plasmodium falciparum) (UniProt Q8ILV1). The experiment can be described thus: two-hybrid; full-length PfPP1c fused to the GAL4 DNA binding domain (pGBKT7, Y187) as bait; P. falciparum cDNA library fused to GAL4AD (pGAD-HA, Y2HGold) by mating; growth on TDO/A or QDO/A; five independent screens.
Regarding “PF3D7_1303800 portion 4987–5278 (from UniProt Q8IES7) (domain or fragment)”, the binding result is reported as “binds”. The value for “PF3D7_0419900 portion 1857–1998 (from UniProt B9ZSJ6) (domain or fragment)” was “binds”; that for “PF3D7_1303800 portion 6176–6407 (from UniProt Q8IES7) (domain or fragment)” was “binds”. The entry for “PF3D7_0419900 portion 4414–4679 (from UniProt B9ZSJ6) (domain or fragment)” is “binds”.

“PF3D7_1303800 portion 9165–9271 (from UniProt Q8IES7) (domain or fragment)”: the binding entry is given as “binds”.
